Assay results as given in PMC5643561, “Zdhhc13-dependent Drp1 S-palmitoylation impacts brain bioenergetics, anxiety, coordination and motor skills” (Scientific Reports, 2017).
No constants are given. Whether binding was seen depends on the method and setting. Binding seen in cells or lysates may run through a third protein. Here binding means that the protein was enriched with, or labelled near, the bait; the list need not be complete.

Sequences of proteins named here, by UniProt entry; tags and fusion partners are left off.
UniProt Q8K1M6: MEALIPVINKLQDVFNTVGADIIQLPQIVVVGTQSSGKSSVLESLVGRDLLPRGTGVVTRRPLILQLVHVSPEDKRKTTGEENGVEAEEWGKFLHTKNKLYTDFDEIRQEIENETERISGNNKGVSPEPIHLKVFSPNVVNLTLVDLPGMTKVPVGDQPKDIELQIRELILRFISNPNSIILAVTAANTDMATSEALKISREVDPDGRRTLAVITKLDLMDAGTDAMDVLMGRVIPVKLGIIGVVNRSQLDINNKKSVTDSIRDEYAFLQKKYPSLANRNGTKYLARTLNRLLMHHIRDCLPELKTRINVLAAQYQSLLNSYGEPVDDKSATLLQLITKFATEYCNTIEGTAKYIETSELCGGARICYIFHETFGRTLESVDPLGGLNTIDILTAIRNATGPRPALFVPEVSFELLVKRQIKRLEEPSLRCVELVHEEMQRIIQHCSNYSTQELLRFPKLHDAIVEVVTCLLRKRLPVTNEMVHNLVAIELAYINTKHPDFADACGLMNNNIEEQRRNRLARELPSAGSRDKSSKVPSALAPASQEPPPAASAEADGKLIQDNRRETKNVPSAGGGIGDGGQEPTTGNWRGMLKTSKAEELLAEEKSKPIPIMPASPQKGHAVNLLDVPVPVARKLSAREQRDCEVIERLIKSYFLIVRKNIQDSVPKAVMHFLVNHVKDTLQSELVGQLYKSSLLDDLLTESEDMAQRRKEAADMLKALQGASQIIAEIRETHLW

Experiments:
[1] = biological target: T1, Zdhhc13, endogenous, WT mouse brain (mouse (endogenous in brain)) (UniProt Q9CWU2); experiment: affinity purification with mass spectrometry; immunoprecipitation with antibodies to Drp1 or Zdhhc13 from whole brains of WT and HOM mice; pellets analysed by mass spectrometry
T1 sequence: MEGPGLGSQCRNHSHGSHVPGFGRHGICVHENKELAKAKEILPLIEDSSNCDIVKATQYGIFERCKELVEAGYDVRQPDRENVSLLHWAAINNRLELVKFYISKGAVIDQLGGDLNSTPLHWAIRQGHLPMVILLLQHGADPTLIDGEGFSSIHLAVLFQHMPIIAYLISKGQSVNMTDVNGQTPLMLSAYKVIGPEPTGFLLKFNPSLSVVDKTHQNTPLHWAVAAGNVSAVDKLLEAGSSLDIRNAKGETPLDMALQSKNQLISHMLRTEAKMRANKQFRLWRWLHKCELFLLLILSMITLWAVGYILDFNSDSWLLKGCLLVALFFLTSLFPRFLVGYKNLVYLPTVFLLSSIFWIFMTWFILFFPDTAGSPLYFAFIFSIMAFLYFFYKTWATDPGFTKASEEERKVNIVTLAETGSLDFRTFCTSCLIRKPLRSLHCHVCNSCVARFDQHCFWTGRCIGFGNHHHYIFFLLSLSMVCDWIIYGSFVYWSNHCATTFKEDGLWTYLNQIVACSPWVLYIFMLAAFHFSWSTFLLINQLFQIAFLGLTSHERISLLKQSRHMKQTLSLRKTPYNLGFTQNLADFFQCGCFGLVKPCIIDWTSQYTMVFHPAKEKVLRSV

[2] = biological target: Drp1, endogenous, mouse brain (mouse (endogenous in brain)) (UniProt Q8K1M6); experiment: as above

binding [1]: binds
binding [2]: binds
B1: mitochondrial glutamate carrier 1 (protein, UniProt Q9D6M3 1-323)
chain: MADKQISLPAKLINGGIAGLIGVTCVFPIDLAKTRLQNQQNGQRMYASMSDCLIKTIRSEGYFGMYRGAAVNLTLVTPEKAIKLAANDFFRHQLSKDGQKLTLPKEMLAGCGAGTCQVIVTTPMEMLKIQLQDAGRIAAQRKILAAQAQLSAQGGAQPSVEAPAPPRPTATQLTRDLLRNHGIAGLYKGLGATLLRDVPFSIVYFPLFANLNQLGRPSSEEKSPFYVSFLAGCVAGSAAAVAVNPCDVVKTRLQSLERGVNEDTYSGFLDCARKIWRHEGPSAFLKGAYCRALVIAPLFGIAQVVYFLGIAESLLGLLQEPQA
